# Test results as given in PubChem BioAssay AID2685 (National Center for Advancing Translational Sciences (NCATS), 2010).
# Some of the results follow. The main result of the screen is listed elsewhere. These columns were measured beside it and carry no call. The list favours compounds with an active or inconclusive main result. Words in brackets tell the shape of the fitted curve; partial curves, single points and poor fits give uncertain potencies.
# Assay: qHTS Assay for Lipid Storage Modulators in Drosophila S3 Cells;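 as to cell number change: cells counted by Cell Tracker Red CMTPX staining in the red channel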
# Details: BODIPY lipid droplet fluorescence, 18-24 h; for cell number change: measured here: cell count max response, cells fed with added oleic acid
# Procedure, shortened: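 Laser-scanning cytometry quantifies lipid droplet accumulation (500–530 nm total intensity; droplet/cell object ratio) in oleic acid-fed (400 uM added) Drosophila S3 cells treated with a concentration series. 20 uM Triacsin C defined 100% inhibition.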
# [1] = measured here: lipid fluorescence (Fed channel) AC50, cells fed with added oleic acid
# [2] = measured here: cell number channel AC50, cells fed with added oleic acid
Compound,cell number change [%],AC50 [1],AC50 [2]
O=C1NC2(CCCCCC2)Cc2ccccc21,8.91,"0.366 µM [falling, full curve]",
COc1ccc(-c2ncccc2O)cc1,-66.9,"3.26 µM [falling, single point]","29.1 µM [falling, single point]"
CCc1cc2c(=O)c(Oc3ccccc3F)c(C)oc2c(CN(C)C)c1O,14,,"0.00366 µM [rising, full curve, poor fit]"
COc1ccc(Br)c(/C=N/NC(=O)COc2ccc(-c3ccccc3)cc2)c1,25.3,"6.51 µM [rising, single point]","2.31 µM [rising, full curve, poor fit]"
CCC(C(=O)NC1CCCCC1)n1c(SCc2ccccc2F)nc2ccncc21 (centres undefined),4.78,"0.411 µM [rising, full curve, poor fit]",
COCCNC(=O)CN1C(=O)COc2ccc(S(=O)(=O)N3CCCCCC3)cc21,,"29.1 µM [rising, single point]","0.206 µM [rising, full curve, poor fit]"
O=C1c2ccccc2CN1CCSC(=S)N1CCOCC1,6.82,,"0.146 µM [falling, partial curve, poor fit]"
CCCCC1=NN(C(=O)c2ccco2)C(O)(C(F)(F)F)C1 (centres undefined),-17.3,"0.651 µM [falling, full curve, poor fit]",
COc1ccc(C2CC(c3ccc(F)cc3)=NN2c2ccccc2)cc1OC (centres undefined),15.5,"20.6 µM [falling, single point]",
CCN1CCN(C(=O)/C=C\C(=O)O)CC1,9.01,,
CCOc1cc(/C=N/NC(=O)c2cccc([N+](=O)[O-])c2)ccc1OS(=O)(=O)c1ccccc1,-12.2,"10.3 µM [falling, single point]",
Cc1cccc(OC(C)C(=O)Nc2nccs2)c1 (centres undefined),-2.89,"0.00517 µM [rising, full curve, poor fit]",
COCCCn1c(C)nnc1SCC(=O)Nc1cccc(C)c1,-1.32,"29.1 µM [rising, single point]",
COc1ccccc1CNCC(O)(c1ccc(Cl)cc1)c1ccc(Cl)cc1,-64.3,,"29.1 µM [falling, single point]"
Cn1cc(S(=O)(=O)N2CCOCC2)cc1C(=O)Nc1cccc(Cl)c1,,"8.2 µM [falling, partial curve]",
O=C(c1ccccc1)c1ccc2nc(N3CCCCC3)c3nncn3c2c1,-3.87,"20.6 µM [falling, single point]",
CCS(=O)(=O)N1CCC(NC(=O)C(Cc2cccc(OC)c2OC)NC(C)=O)CC1 (centres undefined),9.71,"20.6 µM [rising, partial curve, poor fit]",

# By substructure: the entries above with four or more nitrogen atoms
Compound,cell number change [%],AC50 [1],AC50 [2]
CCC(C(=O)NC1CCCCC1)n1c(SCc2ccccc2F)nc2ccncc21 (centres undefined),4.78,"0.411 µM [rising, full curve, poor fit]",
COCCCn1c(C)nnc1SCC(=O)Nc1cccc(C)c1,-1.32,"29.1 µM [rising, single point]",
O=C(c1ccccc1)c1ccc2nc(N3CCCCC3)c3nncn3c2c1,-3.87,"20.6 µM [falling, single point]",
